Measurements reported in PubChem BioAssay AID1053208 (Peter MacCallum Cancer Centre, 2014)

Aim: 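Genes whose silencing cuts survival of bone tumour cells only with doxorubicin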 (primary screen)
Cells: mouse osteosarcoma cells, early-passage culture from an engineered mouse model of fibroblastic bone tumour
Reagents: siRNA pool against mouse genes, 40 nM
Time to read-out: about 120 h (48 h before drug, then 72 h with drug)
Challenge: doxorubicin 100 nM for 72 h, roughly 30-40% inhibitory dose
Measurement: 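Viability read as ATP luminescence after 72 h of 100 nM doxorubicin or none, duplicate wells averaged, scaled to non-targeting siRNA, then expressed as robust z-scores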
Reading the numbers: viability z-score with doxorubicin: higher = more viable cells under doxorubicin; viability z-score without drug: higher = more viable cells with knock-down alone
Rule for the call: 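Called active if knock-down leaves viability unchanged without drug (z within -2 to 2) but lowers it with doxorubicin (z at or under -2)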
In all, the deposit lists about 17,000 reagents; below is a part drawn at random. Over the whole deposit, 788 (4.7%) are marked active. 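Calls rest on z-score classes alone; an extra cut-off of viability at most 70% of control was not applied to them.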 Further read-outs or replicates are left out here.

Plekhf2 scored combined z-score class no change with or without drug; viability z-score with doxorubicin -1.8; viability z-score without drug 0; inactive.
After knock-down of Ptprj, the record shows combined z-score class no change with or without drug; viability z-score with doxorubicin -0.22; viability z-score without drug -0.51; inactive.
Against Bcs1l the deposit lists combined z-score class no change with or without drug; viability z-score with doxorubicin 1.12; viability z-score without drug 0; inactive.
Depletion of Kcnk10 resulted in: combined z-score class low cell count with doxorubicin only; viability z-score with doxorubicin -3.26; viability z-score without drug 0; active.
For Rabggtb, the values are combined z-score class no change with or without drug; viability z-score with doxorubicin 0.34; viability z-score without drug -0.84; inactive.
Against D030056L22Rik, the entry reads combined z-score class no change with or without drug; viability z-score with doxorubicin 0; viability z-score without drug 1.01; inactive.
After knock-down of Mmp20, the record shows combined z-score class no change with or without drug; viability z-score with doxorubicin 0.22; viability z-score without drug 0.84; inactive.
Ciao1 gave combined z-score class no change with or without drug; viability z-score with doxorubicin 0.45; viability z-score without drug 0.51; inactive.
Silencing of Ighg3 came out at: combined z-score class no change with or without drug; viability z-score with doxorubicin -0.67; viability z-score without drug -0.51; inactive.
After knock-down of Fut2b, the screen gave combined z-score class no change with or without drug; viability z-score with doxorubicin -0.9; viability z-score without drug -0.84; inactive.
For Cables1, the entry reads combined z-score class no change with or without drug; viability z-score with doxorubicin -1.91; viability z-score without drug 0.17; inactive.
Ccn4 scored combined z-score class no change with or without drug; viability z-score with doxorubicin 0.67; viability z-score without drug -0.17; inactive.
Silencing of Slbp resulted in: combined z-score class no change with or without drug; viability z-score with doxorubicin 0.67; viability z-score without drug -1.18; inactive.
Against Hmbs, the entry reads combined z-score class no change with or without drug; viability z-score with doxorubicin 0.79; viability z-score without drug -0.84; inactive.
Trim37 showed combined z-score class no change with or without drug; viability z-score with doxorubicin -0.67; viability z-score without drug 1.18; inactive.
With knock-down of Donson, the record shows combined z-score class high cell count without drug only; viability z-score with doxorubicin -0.9; viability z-score without drug 2.36; inactive.
For Tpst2, the entry reads combined z-score class no change with or without drug; viability z-score with doxorubicin 0.45; viability z-score without drug 0.51; inactive.
Bok scored combined z-score class no change with or without drug; viability z-score with doxorubicin 1.12; viability z-score without drug -0.67; inactive.
Knock-down of Rab1a came out at: combined z-score class no change with or without drug; viability z-score with doxorubicin -0.9; viability z-score without drug -1.18; inactive.

Limited to “viability z-score without drug”, for 2 of the entries above:
Tpst2	0.51
Bok	-0.67
